Measured values taken from paper PMC6232094.
No constants are given. Whether binding was seen depends on the method and setting.

How the values were obtained:
[1] = molecular target: human ΔIPMK (inositol polyphosphate multikinase lacking the disordered N-terminus and the kinase-domain internal loop) (human) (UniProt Q8NFU5); assay: SEC; size exclusion chromatography of purified ΔIPMK; conditions of this observation not told; both purified
[2] = molecular target: human ΔIPMK (inositol polyphosphate multikinase lacking the disordered N-terminus and the kinase-domain internal loop) (human) (UniProt Q8NFU5); assay: crystal structure; 2.5 Å, space group P2(1)2(1)2, two ΔIPMK monomers in the asymmetric unit; crystals from 0.1 M sodium citrate pH 3.5, 0.8 M (NH4)2SO4; both purified

binding [1]: no binding | binding [2]: no binding
B1: human ΔIPMK (inositol polyphosphate multikinase lacking the disordered N-terminus and the kinase-domain internal loop) (enzyme, UniProt Q8NFU5 70-279; Q8NFU5 373-416)
chain: DGTVLKQLQPPPRGPRELEFYNMVYAADCFDGVLLELRKYLPKYYGIWSPPTAPNDLYLKLEDVTHKFNKPCIMDVKIGQKSYDPFASSEKIQQQVSKYPLMEEIGFLVLGMRVYHVHSDSYETENQHYGRSLTKETIKDGVSRFFHNGYCLRKDAVAASIQKIEKILQWFENQKQLNFYASSLLFVYEGSSQPTTTKLNDRTLAEKFLSGGGGSGGGGSCQEIAEVEVRMIDFAHVFPSNTIDEGYVYGLKHLISVLRSILDN
